# Data reported in the supplement of paper PMC10032668.
# The chains behind the UniProt entries cited, without tags or fusion partners.
# AHSA1, O95433, UniProt O95433, whole entry: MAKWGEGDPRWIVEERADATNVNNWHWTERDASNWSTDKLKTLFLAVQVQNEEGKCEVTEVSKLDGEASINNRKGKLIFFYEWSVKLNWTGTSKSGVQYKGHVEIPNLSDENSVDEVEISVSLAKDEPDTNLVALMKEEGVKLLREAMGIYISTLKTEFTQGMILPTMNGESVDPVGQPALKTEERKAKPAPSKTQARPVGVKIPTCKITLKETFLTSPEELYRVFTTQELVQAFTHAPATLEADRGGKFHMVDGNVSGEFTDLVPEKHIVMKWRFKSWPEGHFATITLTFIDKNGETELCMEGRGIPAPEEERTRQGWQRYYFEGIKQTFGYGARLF
# ATP6V1G1, O75348, UniProt O75348, whole entry: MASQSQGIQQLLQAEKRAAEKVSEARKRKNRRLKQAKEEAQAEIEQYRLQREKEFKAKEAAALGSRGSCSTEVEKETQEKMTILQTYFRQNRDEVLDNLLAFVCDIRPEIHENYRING
# EIF1AX, P47813, UniProt P47813, whole entry: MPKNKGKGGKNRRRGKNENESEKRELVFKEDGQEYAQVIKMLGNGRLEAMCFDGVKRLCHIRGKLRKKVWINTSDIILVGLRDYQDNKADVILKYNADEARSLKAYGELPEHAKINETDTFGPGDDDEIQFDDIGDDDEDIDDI
# SDC2, P34741, UniProt P34741, whole entry: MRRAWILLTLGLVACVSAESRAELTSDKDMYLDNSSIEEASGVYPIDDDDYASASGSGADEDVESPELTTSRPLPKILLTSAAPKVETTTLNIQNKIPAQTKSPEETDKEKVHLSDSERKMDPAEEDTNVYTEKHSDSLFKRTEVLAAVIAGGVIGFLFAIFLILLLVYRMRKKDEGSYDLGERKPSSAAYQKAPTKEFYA
# SRSF1, Q07955, UniProt Q07955, whole entry: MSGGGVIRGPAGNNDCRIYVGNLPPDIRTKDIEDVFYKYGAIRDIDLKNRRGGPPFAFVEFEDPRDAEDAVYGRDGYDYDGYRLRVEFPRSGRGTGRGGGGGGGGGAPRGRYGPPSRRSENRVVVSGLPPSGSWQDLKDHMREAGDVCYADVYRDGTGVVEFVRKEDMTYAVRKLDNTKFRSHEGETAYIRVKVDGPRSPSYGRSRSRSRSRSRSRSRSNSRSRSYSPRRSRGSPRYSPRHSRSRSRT
# EP300, Q09472, UniProt Q09472, whole entry: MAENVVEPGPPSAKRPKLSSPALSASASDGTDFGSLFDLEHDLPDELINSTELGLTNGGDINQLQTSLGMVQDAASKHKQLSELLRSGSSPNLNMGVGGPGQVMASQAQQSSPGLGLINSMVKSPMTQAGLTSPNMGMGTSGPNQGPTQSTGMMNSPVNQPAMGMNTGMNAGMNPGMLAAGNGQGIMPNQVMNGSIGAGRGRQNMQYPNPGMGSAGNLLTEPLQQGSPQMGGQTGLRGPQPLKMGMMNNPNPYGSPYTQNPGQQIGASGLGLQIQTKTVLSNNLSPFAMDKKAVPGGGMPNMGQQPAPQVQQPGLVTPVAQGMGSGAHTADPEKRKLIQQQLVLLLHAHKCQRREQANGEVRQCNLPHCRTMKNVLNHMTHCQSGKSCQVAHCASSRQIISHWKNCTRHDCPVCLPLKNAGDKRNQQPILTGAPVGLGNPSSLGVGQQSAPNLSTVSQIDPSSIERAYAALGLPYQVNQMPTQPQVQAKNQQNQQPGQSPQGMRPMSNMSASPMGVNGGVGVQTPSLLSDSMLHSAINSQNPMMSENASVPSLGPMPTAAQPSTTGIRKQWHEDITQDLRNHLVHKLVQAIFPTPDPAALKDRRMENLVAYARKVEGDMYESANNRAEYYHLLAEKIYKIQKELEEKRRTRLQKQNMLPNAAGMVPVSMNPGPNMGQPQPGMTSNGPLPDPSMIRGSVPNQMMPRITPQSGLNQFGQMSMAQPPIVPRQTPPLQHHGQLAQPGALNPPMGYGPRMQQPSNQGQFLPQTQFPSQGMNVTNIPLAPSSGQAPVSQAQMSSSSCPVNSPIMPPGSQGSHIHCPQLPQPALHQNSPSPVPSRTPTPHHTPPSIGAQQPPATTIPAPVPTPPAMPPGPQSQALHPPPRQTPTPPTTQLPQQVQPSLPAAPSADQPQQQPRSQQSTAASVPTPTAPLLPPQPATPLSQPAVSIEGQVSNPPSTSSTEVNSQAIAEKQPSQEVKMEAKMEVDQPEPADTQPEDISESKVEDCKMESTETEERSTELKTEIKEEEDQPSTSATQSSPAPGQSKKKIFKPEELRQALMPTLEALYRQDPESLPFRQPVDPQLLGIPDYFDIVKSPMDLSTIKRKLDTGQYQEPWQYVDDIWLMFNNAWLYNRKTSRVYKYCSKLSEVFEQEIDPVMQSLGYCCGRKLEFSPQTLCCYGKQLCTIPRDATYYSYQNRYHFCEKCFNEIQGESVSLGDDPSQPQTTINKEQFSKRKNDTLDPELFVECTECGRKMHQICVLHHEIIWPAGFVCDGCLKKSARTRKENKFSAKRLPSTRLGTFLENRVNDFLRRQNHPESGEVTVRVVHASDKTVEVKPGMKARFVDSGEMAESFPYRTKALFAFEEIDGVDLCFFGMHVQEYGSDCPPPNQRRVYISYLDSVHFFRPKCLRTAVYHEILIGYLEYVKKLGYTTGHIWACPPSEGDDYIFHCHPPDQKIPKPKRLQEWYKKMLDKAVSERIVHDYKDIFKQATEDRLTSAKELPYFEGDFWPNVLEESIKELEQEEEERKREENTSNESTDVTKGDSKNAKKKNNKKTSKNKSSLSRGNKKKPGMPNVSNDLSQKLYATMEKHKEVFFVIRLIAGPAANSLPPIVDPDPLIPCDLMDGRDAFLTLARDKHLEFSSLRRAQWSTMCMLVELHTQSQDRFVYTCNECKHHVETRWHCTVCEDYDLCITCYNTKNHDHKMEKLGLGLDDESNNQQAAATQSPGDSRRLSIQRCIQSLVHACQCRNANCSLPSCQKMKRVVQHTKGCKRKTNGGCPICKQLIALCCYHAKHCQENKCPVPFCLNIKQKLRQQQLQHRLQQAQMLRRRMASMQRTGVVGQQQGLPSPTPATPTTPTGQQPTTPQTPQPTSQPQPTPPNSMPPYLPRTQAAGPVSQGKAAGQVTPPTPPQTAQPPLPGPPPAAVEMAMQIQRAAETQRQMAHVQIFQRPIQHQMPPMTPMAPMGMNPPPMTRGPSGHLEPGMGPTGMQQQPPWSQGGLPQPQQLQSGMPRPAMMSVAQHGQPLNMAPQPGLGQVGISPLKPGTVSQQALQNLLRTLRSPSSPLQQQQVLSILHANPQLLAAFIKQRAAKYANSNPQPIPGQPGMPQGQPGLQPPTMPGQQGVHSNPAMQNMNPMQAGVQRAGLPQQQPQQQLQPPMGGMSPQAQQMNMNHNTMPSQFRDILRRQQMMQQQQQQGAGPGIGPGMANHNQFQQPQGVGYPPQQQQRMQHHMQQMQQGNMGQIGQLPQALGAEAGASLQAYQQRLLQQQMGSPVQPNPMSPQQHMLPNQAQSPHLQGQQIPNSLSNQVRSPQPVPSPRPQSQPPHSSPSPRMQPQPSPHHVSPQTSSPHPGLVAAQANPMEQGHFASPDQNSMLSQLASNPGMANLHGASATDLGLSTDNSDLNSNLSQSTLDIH
# RANBP1, P43487, UniProt P43487, whole entry: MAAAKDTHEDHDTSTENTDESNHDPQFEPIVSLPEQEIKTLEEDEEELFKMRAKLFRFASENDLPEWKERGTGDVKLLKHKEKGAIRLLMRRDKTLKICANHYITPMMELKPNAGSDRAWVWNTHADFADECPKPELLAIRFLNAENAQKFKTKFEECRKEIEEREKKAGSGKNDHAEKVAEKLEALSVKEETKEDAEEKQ
# AIFM1, O95831, UniProt O95831, whole entry: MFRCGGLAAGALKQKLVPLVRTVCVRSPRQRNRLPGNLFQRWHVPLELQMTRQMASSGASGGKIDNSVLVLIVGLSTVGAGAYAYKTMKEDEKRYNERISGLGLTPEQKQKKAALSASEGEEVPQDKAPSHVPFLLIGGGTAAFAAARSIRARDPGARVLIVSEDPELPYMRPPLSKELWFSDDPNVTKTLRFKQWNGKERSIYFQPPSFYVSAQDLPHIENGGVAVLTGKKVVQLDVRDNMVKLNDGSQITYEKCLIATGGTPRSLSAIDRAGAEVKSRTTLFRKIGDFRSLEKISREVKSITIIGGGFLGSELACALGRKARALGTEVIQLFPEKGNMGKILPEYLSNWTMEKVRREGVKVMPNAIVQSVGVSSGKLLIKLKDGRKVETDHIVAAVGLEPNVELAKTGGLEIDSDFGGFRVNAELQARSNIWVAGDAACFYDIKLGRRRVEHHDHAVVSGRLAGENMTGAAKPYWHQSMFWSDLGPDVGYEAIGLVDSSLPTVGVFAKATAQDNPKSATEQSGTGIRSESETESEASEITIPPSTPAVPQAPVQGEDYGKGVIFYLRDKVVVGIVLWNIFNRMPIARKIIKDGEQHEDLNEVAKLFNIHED
# GNB2, P62879, UniProt P62879, whole entry: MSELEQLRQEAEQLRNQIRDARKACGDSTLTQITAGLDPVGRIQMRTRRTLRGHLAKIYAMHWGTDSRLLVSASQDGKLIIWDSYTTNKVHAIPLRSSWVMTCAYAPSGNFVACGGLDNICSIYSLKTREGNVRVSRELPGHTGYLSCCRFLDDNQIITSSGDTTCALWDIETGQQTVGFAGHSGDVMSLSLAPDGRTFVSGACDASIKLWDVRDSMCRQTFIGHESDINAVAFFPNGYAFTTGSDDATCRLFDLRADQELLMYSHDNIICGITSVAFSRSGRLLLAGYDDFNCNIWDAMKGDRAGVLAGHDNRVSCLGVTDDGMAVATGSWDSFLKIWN
# Some of the results follow. Only hits are listed; about a third recur on repeated control peptides.
# B1: C5orf56 (peptide)
# chain: TGAAAVSGEGRRMQR
# B2: RP11-140K17.3_2 (peptide)
# chain: VVPRQLNFCISSGSR
# B3: JHDM1D-AS1 (peptide)
# chain: LENVPPEFPASSKET
# Columns and labels:
# Assay in all cases: PRISMA enrichment of interactor (LFQ) in peptide spot vs all other peptide spots (log2 fold change); higher = stronger / more specific binding of the interactor to the peptide
# [1] = target: AHSA1, O95433
# Protocol: (§1)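 PRISMA: 15-aa overlapping tiles (offset 8 aa) of 60 microproteins, plus SOS1/GLUT1 control peptides, were spot-synthesized on cellulose membranes in triplicate. Membranes were incubated with benzonase-treated HEK293T lysate, and bound proteins were identified by LC-MS/MS with LFQ. Enrichment is the log2 fold change of each protein in one spot versus all other spots. Only interactors passing the significance cutoff are listed.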
# [2] = target: ATP6V1G1, O75348
# Protocol: as §1
# [3] = target: ATRN, O75882
# Protocol: as §1
# [4] = target: BAG4, O95429
# Protocol: as §1
# [5] = target: CDIPT, O14735
# Protocol: as §1
# [6] = target: CMAS, Q8NFW8
# Protocol: as §1
# [7] = target: CTNND1, O60716
# Protocol: as §1
# [8] = target: EIF1AX, P47813
# Protocol: as §1
# [9] = target: FANCD2, Q9BXW9
# Protocol: as §1
# [10] = target: GTF2I, P78347
# Protocol: as §1
# [11] = target: HUWE1, Q7Z6Z7
# Protocol: as §1
# [12] = target: LLPH, Q9BRT6
# Protocol: as §1
# [13] = target: MAZ, P56270
# Protocol: as §1
# [14] = target: MRPL27, Q9P0M9
# Protocol: as §1
# [15] = target: MRPS15, P82914
# Protocol: as §1
# [16] = target: PPP1R12A, O14974
# Protocol: as §1
# [17] = target: PYM1, Q9BRP8
# Protocol: as §1
# [18] = target: RPS29, P62273
# Protocol: as §1
# [19] = target: RSRC2, Q7L4I2
# Protocol: as §1
# [20] = target: SDC2, P34741
# Protocol: as §1
# [21] = target: SFXN2, Q96NB2
# Protocol: as §1
# [22] = target: SOAT1, P35610
# Protocol: as §1
# [23] = target: SRSF1, Q07955
# Protocol: as §1
# [24] = target: SRSF4, Q08170
# Protocol: as §1
# [25] = target: TAF15, Q92804
# Protocol: as §1
# [26] = target: TIAL1, Q01085
# Protocol: as §1
# [27] = target: UTP11, Q9Y3A2
# Protocol: as §1
# [28] = target: XRN2, Q9H0D6
# Protocol: as §1
# [29] = target: AHSG, P02765
# Protocol: as §1
# [30] = target: CKAP2, Q8WWK9
# Protocol: as §1
# [31] = target: CKAP5, Q14008
# Protocol: as §1
# [32] = target: CSNK1A1, P48729
# Protocol: as §1
# [33] = target: EP300, Q09472
# Protocol: as §1
# [34] = target: HAT1, O14929
# Protocol: as §1
# [35] = target: NOP16, Q9Y3C1
# Protocol: as §1
# [36] = target: NQO2, P16083
# Protocol: as §1
# [37] = target: NSD2, O96028
# Protocol: as §1
# [38] = target: RANBP1, P43487
# Protocol: as §1
# [39] = target: SLAIN2, Q9P270
# Protocol: as §1
# [40] = target: SLC25A24, Q6NUK1
# Protocol: as §1
# [41] = target: TIMM44, O43615
# Protocol: as §1
# [42] = target: AIFM1, O95831
# Protocol: as §1
# [43] = target: GNB2, P62879
# Protocol: as §1
# [44] = target: LMNB2, Q03252
# Protocol: as §1
# [45] = target: MRPL9, Q9BYD2
# Protocol: as §1
# [46] = target: NAMPT, P43490
# Protocol: as §1
# [47] = target: POLDIP2, Q9Y2S7
# Protocol: as §1
# [48] = target: TP53, P04637
# Protocol: as §1
binder,measurement,setting,value
B1,PRISMA enrichment of interactor (log2),[1],9.86
same,PRISMA enrichment of interactor (log2),[2],7.89
same,PRISMA enrichment of interactor (log2),[3],4.54
same,PRISMA enrichment of interactor (log2),[4],6.81
same,PRISMA enrichment of interactor (log2),[5],10.3
same,PRISMA enrichment of interactor (log2),[6],3.9
same,PRISMA enrichment of interactor (log2),[7],4.54
same,PRISMA enrichment of interactor (log2),[8],5.08
same,PRISMA enrichment of interactor (log2),[9],7.95
same,PRISMA enrichment of interactor (log2),[10],4.56
same,PRISMA enrichment of interactor (log2),[11],6.11
same,PRISMA enrichment of interactor (log2),[12],4.24
same,PRISMA enrichment of interactor (log2),[13],5.49
same,PRISMA enrichment of interactor (log2),[14],8.04
same,PRISMA enrichment of interactor (log2),[15],5.13
same,PRISMA enrichment of interactor (log2),[16],4.7
same,PRISMA enrichment of interactor (log2),[17],5.14
same,PRISMA enrichment of interactor (log2),[18],4.33
same,PRISMA enrichment of interactor (log2),[19],4.9
same,PRISMA enrichment of interactor (log2),[20],5.81
same,PRISMA enrichment of interactor (log2),[21],5.83
same,PRISMA enrichment of interactor (log2),[22],4.57
same,PRISMA enrichment of interactor (log2),[23],5.41
same,PRISMA enrichment of interactor (log2),[24],5.73
same,PRISMA enrichment of interactor (log2),[25],5
same,PRISMA enrichment of interactor (log2),[26],5.32
same,PRISMA enrichment of interactor (log2),[27],8.91
same,PRISMA enrichment of interactor (log2),[28],4.57
B2,PRISMA enrichment of interactor (log2),[29],3.68
same,PRISMA enrichment of interactor (log2),[30],5.2
same,PRISMA enrichment of interactor (log2),[31],6.25
same,PRISMA enrichment of interactor (log2),[32],6.32
same,PRISMA enrichment of interactor (log2),[33],4.02
same,PRISMA enrichment of interactor (log2),[34],6.68
same,PRISMA enrichment of interactor (log2),[35],4.73
same,PRISMA enrichment of interactor (log2),[36],4.47
same,PRISMA enrichment of interactor (log2),[37],6.18
same,PRISMA enrichment of interactor (log2),[38],5.76
same,PRISMA enrichment of interactor (log2),[39],5.85
same,PRISMA enrichment of interactor (log2),[40],5.89
same,PRISMA enrichment of interactor (log2),[41],4.26
B3,PRISMA enrichment of interactor (log2),[42],8.2
same,PRISMA enrichment of interactor (log2),[43],4.62
same,PRISMA enrichment of interactor (log2),[34],4.39
same,PRISMA enrichment of interactor (log2),[44],7.21
same,PRISMA enrichment of interactor (log2),[45],7.21
same,PRISMA enrichment of interactor (log2),[46],5.68
same,PRISMA enrichment of interactor (log2),[47],5.46
same,PRISMA enrichment of interactor (log2),[48],5.47

# Nothing new here: entries from further up.
binder,measurement,setting,value
B2,PRISMA enrichment of interactor (log2),[31],6.25
same,PRISMA enrichment of interactor (log2),[32],6.32
same,PRISMA enrichment of interactor (log2),[33],4.02
same,PRISMA enrichment of interactor (log2),[34],6.68
